{"source": "PubChem BioAssay AID686943 (Drosophila RNAi Screening Center, 2013)", "test": "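Knockdowns that increase or decrease active ERK after insulin receptor stimulation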 (primary screen)", "system": "Drosophila S2R+ haemocyte-like cells expressing YFP-tagged ERK (Rolled)", "knock-down reagent": "long dsRNA against Drosophila genes", "treatment": "insulin stimulation versus unstimulated cells; dose and duration not given", "read-out": "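Per-plate z-scores of phospho-ERK immunostaining normalised to YFP-tagged ERK, measured with and without insulin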", "direction": "replicate 1, z-score of dpERK with insulin: higher = more active ERK per ERK-YFP after insulin", "note": "In all, the deposit lists about 23,000 reagents; below is a random part of those with a known target gene and a result. 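Extra replicates exist only for a retested subset of genes; insulin dose and duration not given; both raised and lowered dpERK matter.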 Reagents against one gene are numbered here. A plus sign joins genes that one reagent is predicted to hit. Further read-outs or replicates are left out here. Reagent sequences are not shown. Not stated in the record: the amount of reagent, the time to read-out."}
{"target gene": "CG15597", "dsRNA no.": 1, "replicate 1, z-score of dpERK with insulin": 0.93}
{"target gene": "Ssu72", "dsRNA no.": 1, "replicate 1, z-score of dpERK with insulin": -0.12}
{"target gene": "armi", "dsRNA no.": 1, "replicate 1, z-score of dpERK with insulin": 0.05}
{"target gene": "CG32576", "dsRNA no.": 1, "replicate 1, z-score of dpERK with insulin": 0.04}
{"target gene": "CG7460", "dsRNA no.": 1, "replicate 1, z-score of dpERK with insulin": -0.21}
{"target gene": "Fitm", "dsRNA no.": 1, "replicate 1, z-score of dpERK with insulin": -0.65}
{"target gene": "GluRS-m", "dsRNA no.": 1, "replicate 1, z-score of dpERK with insulin": 0.75}
{"target gene": "CG4887", "dsRNA no.": 1, "replicate 1, z-score of dpERK with insulin": 1.23}
{"target gene": "CG4887", "dsRNA no.": 2, "replicate 1, z-score of dpERK with insulin": 1.01}
{"target gene": "slpr", "dsRNA no.": 1, "replicate 1, z-score of dpERK with insulin": 0.88}
{"target gene": "ScpX", "dsRNA no.": 1, "replicate 1, z-score of dpERK with insulin": 0.71}
{"target gene": "Trap1", "dsRNA no.": 1, "replicate 1, z-score of dpERK with insulin": 0.12}
{"target gene": "sala + CG43355", "dsRNA no.": 1, "replicate 1, z-score of dpERK with insulin": 0.55}
{"target gene": "sala + CG43355", "dsRNA no.": 2, "replicate 1, z-score of dpERK with insulin": 0.04}
{"target gene": "snRNP-U1-C", "dsRNA no.": 1, "replicate 1, z-score of dpERK with insulin": 0.33}
{"target gene": "IntS10", "dsRNA no.": 1, "replicate 1, z-score of dpERK with insulin": 0.27}
{"target gene": "CG13716", "dsRNA no.": 1, "replicate 1, z-score of dpERK with insulin": 0.46}
{"target gene": "CG13716", "dsRNA no.": 2, "replicate 1, z-score of dpERK with insulin": 0.11}
{"target gene": "Prm", "dsRNA no.": 1, "replicate 1, z-score of dpERK with insulin": 0.15}
{"target gene": "Prm", "dsRNA no.": 2, "replicate 1, z-score of dpERK with insulin": 0.3}
{"target gene": "Prm", "dsRNA no.": 3, "replicate 1, z-score of dpERK with insulin": -0.06}
{"target gene": "CG7518", "dsRNA no.": 1, "replicate 1, z-score of dpERK with insulin": -0.7}
{"target gene": "asRNA:CR43299 + CG8119", "dsRNA no.": 1, "replicate 1, z-score of dpERK with insulin": -0.83}
{"target gene": "CG6254", "dsRNA no.": 1, "replicate 1, z-score of dpERK with insulin": 0.66}
{"target gene": "mRpL10", "dsRNA no.": 1, "replicate 1, z-score of dpERK with insulin": 0.01}
{"target gene": "CG6800", "dsRNA no.": 1, "replicate 1, z-score of dpERK with insulin": -0.04}
{"target gene": "ATPsynO", "dsRNA no.": 1, "replicate 1, z-score of dpERK with insulin": 0.62}
{"target gene": "Crtc", "dsRNA no.": 1, "replicate 1, z-score of dpERK with insulin": 0.97}
{"target gene": "Acp36DE", "dsRNA no.": 1, "replicate 1, z-score of dpERK with insulin": -0.03}
{"target gene": "galla-2", "dsRNA no.": 1, "replicate 1, z-score of dpERK with insulin": 0.53}
{"target gene": "galla-2", "dsRNA no.": 2, "replicate 1, z-score of dpERK with insulin": 1.38}
{"target gene": "CG34304 (retired record)", "dsRNA no.": 1, "replicate 1, z-score of dpERK with insulin": -0.42}
{"target gene": "CG8461", "dsRNA no.": 1, "replicate 1, z-score of dpERK with insulin": -0.33}
{"target gene": "Peritrophin-15a", "dsRNA no.": 1, "replicate 1, z-score of dpERK with insulin": 0}
{"target gene": "CG10702", "dsRNA no.": 1, "replicate 1, z-score of dpERK with insulin": -0.35}
{"target gene": "Dad1", "dsRNA no.": 1, "replicate 1, z-score of dpERK with insulin": -0.27}
{"target gene": "CG33230", "dsRNA no.": 1, "replicate 1, z-score of dpERK with insulin": 0.09}
{"target gene": "Surf1", "dsRNA no.": 1, "replicate 1, z-score of dpERK with insulin": -1.94}
{"target gene": "Surf1", "dsRNA no.": 2, "replicate 1, z-score of dpERK with insulin": 0.23}
{"target gene": "Tmhs", "dsRNA no.": 1, "replicate 1, z-score of dpERK with insulin": 0.67}

Reprinted from above (6 entries):
{"target gene": "CG7518", "dsRNA no.": 1, "replicate 1, z-score of dpERK with insulin": -0.7}
{"target gene": "asRNA:CR43299 + CG8119", "dsRNA no.": 1, "replicate 1, z-score of dpERK with insulin": -0.83}
{"target gene": "CG6254", "dsRNA no.": 1, "replicate 1, z-score of dpERK with insulin": 0.66}
{"target gene": "mRpL10", "dsRNA no.": 1, "replicate 1, z-score of dpERK with insulin": 0.01}
{"target gene": "CG6800", "dsRNA no.": 1, "replicate 1, z-score of dpERK with insulin": -0.04}
{"target gene": "ATPsynO", "dsRNA no.": 1, "replicate 1, z-score of dpERK with insulin": 0.62}
